PubChem BioAssay AID686938 | Drosophila RNAi Screening Center, 2013
The screen tested about 23,000 reagents; below is an unselected part of those with a known target gene and a result. Of all reagents, 75 (0.33%) were called active. 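Raw plate signals without normalisation; calls rest on plate z-scores that were not deposited; ratio present for only 364 wells.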 A number with no mark means an inactive call. The numbers tell different reagents against one gene apart. The record does not give: the dose of the treatment.

- Purpose: 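Looking for CRAC channel components and the factors controlling them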 (primary screen)
- System: Drosophila S2R+ cells
- Reagent: long dsRNA against Drosophila genes, about 0.25 µg dsRNA per well, roughly 10,000 cells
- Time to read-out: 5 days of knock-down before the calcium assay
- Challenge: thapsigargin (SERCA pump blocker) to empty calcium stores; entry signal taken 4 min after adding it
- Measured: 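Per-well fluo-4 fluorescence in two replicates, unnormalised, measured in resting cells and 4 min after store depletion by the SERCA blocker thapsigargin; ratio of the two present in few wells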
- Direction: calcium entry signal: higher = stronger calcium signal after store depletion; resting calcium signal: higher = higher resting calcium signal
- Units: calcium entry signal in fluorescence units; resting calcium signal in fluorescence units
- Rule for the call: 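Hit if the duplicate-averaged plate z-score for entry over resting signal is under −3; wells with weak total dye signal (Fmax z < −2) or more than 5 off-targets removed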
- Meaning of the calls: active = strongly reduced calcium entry; inactive = no strong reduction

After knock-down of CG8372, the screen gave calcium entry signal, replicate 1 = 4.26e7; resting calcium signal, replicate 1 = 2.76e7. Depletion of Tti1 (Telo2 interacting protein 1) resulted in: calcium entry signal, replicate 1 = 3.55e7; calcium entry signal, replicate 2 = 3.31e7; resting calcium signal, replicate 1 = 2.14e7; resting calcium signal, replicate 2 = 1.72e7. With knock-down of CG17801, the record shows calcium entry signal, replicate 1 = 3.36e7; calcium entry signal, replicate 2 = 2.65e7; resting calcium signal, replicate 1 = 3.99e7; resting calcium signal, replicate 2 = 1.25e7. With knock-down of CG42319 #1, the screen gave calcium entry signal, replicate 1 = 2.74e7; calcium entry signal, replicate 2 = 4.70e7; resting calcium signal, replicate 1 = 1.53e7; resting calcium signal, replicate 2 = 1.87e7. With knock-down of CG42319 #2, the record shows calcium entry signal, replicate 1 = 2.49e7; calcium entry signal, replicate 2 = 4.62e7; resting calcium signal, replicate 1 = 1.38e7; resting calcium signal, replicate 2 = 1.90e7. For CG42319 #3, the values are calcium entry signal, replicate 1 = 3.82e7; calcium entry signal, replicate 2 = 3.86e7; resting calcium signal, replicate 1 = 1.92e7; resting calcium signal, replicate 2 = 1.72e7.

CG11030 scored calcium entry signal, replicate 1 = 2.20e7; calcium entry signal, replicate 2 = 2.19e7; resting calcium signal, replicate 1 = 1.23e7; resting calcium signal, replicate 2 = 1.25e7. CG17472 showed calcium entry signal, replicate 1 = 4.32e7; calcium entry signal, replicate 2 = 4.43e7; resting calcium signal, replicate 1 = 1.91e7; resting calcium signal, replicate 2 = 1.92e7. Against hid (head involution defective) the deposit lists calcium entry signal, replicate 1 = 3.99e7; calcium entry signal, replicate 2 = 7.00e7; resting calcium signal, replicate 1 = 1.95e7; resting calcium signal, replicate 2 = 2.73e7. With knock-down of Lgr3 (Leucine-rich repeat-containing G protein-coupled receptor 3) #1, the record shows calcium entry signal, replicate 1 = 3.46e7; calcium entry signal, replicate 2 = 6.77e7; resting calcium signal, replicate 1 = 1.71e7; resting calcium signal, replicate 2 = 2.66e7. With knock-down of Lgr3 (Leucine-rich repeat-containing G protein-coupled receptor 3) #2, the screen gave calcium entry signal, replicate 1 = 3.21e7; calcium entry signal, replicate 2 = 2.41e7; resting calcium signal, replicate 1 = 1.67e7; resting calcium signal, replicate 2 = 1.14e7. For Glut1 (Glucose transporter 1) #1 the deposit lists calcium entry signal, replicate 1 = 2.85e7; calcium entry signal, replicate 2 = 2.50e7; resting calcium signal, replicate 1 = 1.36e7; resting calcium signal, replicate 2 = 1.25e7.

Silencing of Glut1 (Glucose transporter 1) #2 resulted in: calcium entry signal, replicate 1 = 1.84e7; calcium entry signal, replicate 2 = 2.79e7; resting calcium signal, replicate 1 = 9.94e6; resting calcium signal, replicate 2 = 1.32e7. Knock-down of Glut1 (Glucose transporter 1) #3 gave: calcium entry signal, replicate 1 = 2.65e7; calcium entry signal, replicate 2 = 2.39e7; resting calcium signal, replicate 1 = 1.25e7; resting calcium signal, replicate 2 = 1.14e7.

Targets listed so far whose gene name starts with G or g (3):
Glut1 (Glucose transporter 1) #1 → calcium entry signal, replicate 1: 2.85e7; calcium entry signal, replicate 2: 2.50e7; resting calcium signal, replicate 1: 1.36e7; resting calcium signal, replicate 2: 1.25e7
Glut1 (Glucose transporter 1) #2 → calcium entry signal, replicate 1: 1.84e7; calcium entry signal, replicate 2: 2.79e7; resting calcium signal, replicate 1: 9.94e6; resting calcium signal, replicate 2: 1.32e7
Glut1 (Glucose transporter 1) #3 → calcium entry signal, replicate 1: 2.65e7; calcium entry signal, replicate 2: 2.39e7; resting calcium signal, replicate 1: 1.25e7; resting calcium signal, replicate 2: 1.14e7
